Measurements as given in PubChem BioAssay AID1835 (Johns Hopkins Ion Channel Center, 2009).
The list shows a part of the results, in another mix than the full data. Active and inactive are the calls of the source.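 Rule for the calls: active = median signal gain over dofetilide-blocked control wells reaching their mean plus 3 SD, so readout 1 at least 0; inactive = the rest.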

By UniProt entry, the sequences of proteins in these tests, tags left out. Where a name states a change or a piece, a line headed by the entry shows the natural chain unless it says otherwise.
UniProt Q12809: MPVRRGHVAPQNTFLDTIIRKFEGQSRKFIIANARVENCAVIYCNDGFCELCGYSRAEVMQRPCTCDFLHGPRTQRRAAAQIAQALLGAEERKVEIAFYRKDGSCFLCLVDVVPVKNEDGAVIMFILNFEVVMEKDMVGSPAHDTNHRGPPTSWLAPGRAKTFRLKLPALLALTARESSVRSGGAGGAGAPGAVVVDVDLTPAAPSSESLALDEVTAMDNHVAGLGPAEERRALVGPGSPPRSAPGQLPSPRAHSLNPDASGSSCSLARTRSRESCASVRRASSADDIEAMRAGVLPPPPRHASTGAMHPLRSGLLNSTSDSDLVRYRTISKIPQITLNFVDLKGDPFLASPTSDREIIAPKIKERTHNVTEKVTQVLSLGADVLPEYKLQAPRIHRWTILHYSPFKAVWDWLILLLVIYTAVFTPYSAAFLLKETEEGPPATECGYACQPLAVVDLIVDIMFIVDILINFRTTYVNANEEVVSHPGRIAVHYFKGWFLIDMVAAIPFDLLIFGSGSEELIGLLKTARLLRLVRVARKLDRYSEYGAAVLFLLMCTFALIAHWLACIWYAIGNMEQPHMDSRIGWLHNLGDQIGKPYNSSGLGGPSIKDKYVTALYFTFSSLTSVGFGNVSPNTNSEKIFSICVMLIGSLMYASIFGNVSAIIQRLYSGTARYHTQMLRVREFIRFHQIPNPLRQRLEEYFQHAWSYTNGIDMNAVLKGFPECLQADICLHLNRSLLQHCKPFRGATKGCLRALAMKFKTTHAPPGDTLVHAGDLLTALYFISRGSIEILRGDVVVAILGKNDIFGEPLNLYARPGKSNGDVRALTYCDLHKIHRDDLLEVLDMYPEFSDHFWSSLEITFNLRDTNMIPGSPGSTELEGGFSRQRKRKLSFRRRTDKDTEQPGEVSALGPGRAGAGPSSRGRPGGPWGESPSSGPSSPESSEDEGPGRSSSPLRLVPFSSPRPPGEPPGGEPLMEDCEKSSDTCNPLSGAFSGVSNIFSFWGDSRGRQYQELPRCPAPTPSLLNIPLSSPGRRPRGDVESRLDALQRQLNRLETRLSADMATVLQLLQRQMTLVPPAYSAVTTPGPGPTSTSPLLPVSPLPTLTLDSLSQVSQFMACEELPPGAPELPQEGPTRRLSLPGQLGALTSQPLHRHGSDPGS

What follows are compounds tested against Voltage-gated inwardly rectifying potassium channel KCNH2 (Homo sapiens) (UniProt Q12809) (assay: hERG protection against dofetilide inhibition, confirmation, cell-based, thallium flux, duplicate retest, dofetilide IC70 (AID 1835)). Conditions: hERG cell line, FluxOR thallium flux, dofetilide-blocked; at 10 µM; hits give high values.
CN1C(=O)C(N=Nc2ccccc2C(=O)O)N(C)C1=S (stereo unspecified) was tested, and the activity increase over dofetilide control, less the hit threshold was active: 1%.
